Data as given in patent US20250161441A1, “MEDICINE COMPRISING COMBINATION OF ANTI-MUTANT-CALR ANTIBODY AND ANOTHER DRUG” (JUNTENDO EDUCATIONAL FOUNDATION, priority 2022, published 2025).
Results are given in words; binding and its absence hold for the method and conditions named. Some entries that bind do so weakly or less than the wild type.

How the values were obtained:
Assay in all cases: Western blot of culture supernatant of UT-7/TPO cells expressing FLAG-tagged mutant CALR
[1] = molecular target: cleaved Del 52 type mutant CALR protein (FLAG-tagged, from culture supernatant) (UniProt P27797)
[2] = molecular target: cleaved Ins 5 type mutant CALR protein (FLAG-tagged, from culture supernatant) (UniProt P27797)
[3] = molecular target: full-length Ins 5 type mutant CALR protein having a FLAG-tag inserted downstream of the signal sequence at the N-terminus (UniProt P27797)

Measured: binding

B1: clone C6 antibody (antibody, V domains shown)
VH: QVQLQQSGAELVKPGSSVKISCKASGYTFTSYFVHWIKQQPGDGLEWIGWIYPGDGDTEYNHKFNGKSTLTADRSSSTAYMQLSSLTSEDSAVYFCARGNYYDGREVMDAWGQGASVTVSS
VL: DVVLTQTPPTLSATIGQSVSISCRSSQSLLDSDGETYLNWLLQRPGQSPQLLIYSVSNLESGVPNRFSGSGSETDFTLKISGMEAEDLGVYYCMQATHGPYTFGAGTKLELK
binds: [1] | [2] | [3]

B2: clone G1 antibody (antibody, V domains shown)
VH: QVQLQQSGAELVKPGSSVKISCKASGYTFTSYFVHWIKQQPGDGLEWIGWIYPGDGDTEYNQKFNGKATLTADRSSSTAYMQLSSLTSEDSAVYFCARGNYYDGREVMDAWGQGASVTVSS
VL: DVVLTQTPPTLSATIGQSVSISCRSSQSLLDSDGETYLNWLLQRPGQCPQLLIYSVSNLESGVPNRFSGSGSETDFTLKISGVEAEDLGVYYCMQGTHGPYTFGAGTKLELK
binds: [1] | [2] | [3]

B3: clone B3 antibody (antibody, V domains shown)
VH: QVQLQQSGAELVKPGSSVKISCKASGYTFTRNFIHWIKQQPGNGLEWIGWIFPGDGDTEYNQKFNGKATLTADKSSSTAYMQLSSLTSEDSAVYFCARGNYNYEYFDYWGQGVMVTVSS
VL: DIQMTQSPASLSASLGETVSIECLASEDIYSYLAWYQQKPGKSPQLLIFAANRLQDGVPSRFSGSGSGTQFSLKISGMQPEDEGDYFCLQGSKFPYTFGPGTKLELN
binds: [1] | [2] | [3]
